Data: patent US5607966A, “Esters and amides of non-steroidal anti-inflammatory carboxylic acids which may be used as anti-oxidants, 5-lipoxygenase inhibitors and non-steroidal anti-inflammatory prodrugs” (Alcon Laboratories, Inc., priority 1994, dated 1997)
pIC50: −log10 of the molar value. At least one compound was matched to its structure with a doubt left.

Experiment: phospholipid oxidation assay (conjugate diene formation in liposomes, Fe+3/EDTA and ascorbate)
Assay type: biochemical
Settings: Fe+3/EDTA (167 μM) and ascorbate (167 μM), one hour
Procedure: Antioxidant activity was measured using a phospholipid oxidation assay. Liposomes were formed from dilineoleolylphosphocholine and the test compound. Free radical damage was induced by exposure to Fe^+3 /EDTA (167 micromolar [μM]) and ascorbate (167 μM). Oxidation was terminated after one hour by freezing in liquid nitrogen. Lyophilized samples were then dissolved in methanol or water. Oxidation was measured by conjugate diene formation, monitored using UV spectroscopy as described in Biochimica et Biophyica Acta, volume 1081, 181-187, (1991). The IC50 was calculated using the following non-linear regression algorithm: Y=A/[1+(B/X)^c ], wherein A=maximum, B=IC^50 and c=cooperativity or relative broadness of the curves. The minimum was assumed to be zero.

COc1ccc2cc(C(C)C(=O)OCC3(C)Cc4c(C)c(O)c(C)c(C)c4O3)ccc2c1 (stereo not shown) [Compound E, 2-(5-hydroxy-2,4,6,7-tetramethyl-2,3-dihydro-benzo[1,2-b]furan-2-yl)methyl2-(6-methoxy-2-naphthyl)propionate]
pIC50: 5.61
